Measured values reported in article PMC12765388.
No constants are given. Whether binding was seen depends on the method and setting. In cells and extracts the contact can be indirect. Here binding means that the protein was enriched with, or labelled near, the bait; the list need not be complete. Sequences can lack the tags named with a protein. One block for each binder: values may come before it.

Chains of the proteins cited; added tags and fusions are not shown.
UniProt Q9UQE7: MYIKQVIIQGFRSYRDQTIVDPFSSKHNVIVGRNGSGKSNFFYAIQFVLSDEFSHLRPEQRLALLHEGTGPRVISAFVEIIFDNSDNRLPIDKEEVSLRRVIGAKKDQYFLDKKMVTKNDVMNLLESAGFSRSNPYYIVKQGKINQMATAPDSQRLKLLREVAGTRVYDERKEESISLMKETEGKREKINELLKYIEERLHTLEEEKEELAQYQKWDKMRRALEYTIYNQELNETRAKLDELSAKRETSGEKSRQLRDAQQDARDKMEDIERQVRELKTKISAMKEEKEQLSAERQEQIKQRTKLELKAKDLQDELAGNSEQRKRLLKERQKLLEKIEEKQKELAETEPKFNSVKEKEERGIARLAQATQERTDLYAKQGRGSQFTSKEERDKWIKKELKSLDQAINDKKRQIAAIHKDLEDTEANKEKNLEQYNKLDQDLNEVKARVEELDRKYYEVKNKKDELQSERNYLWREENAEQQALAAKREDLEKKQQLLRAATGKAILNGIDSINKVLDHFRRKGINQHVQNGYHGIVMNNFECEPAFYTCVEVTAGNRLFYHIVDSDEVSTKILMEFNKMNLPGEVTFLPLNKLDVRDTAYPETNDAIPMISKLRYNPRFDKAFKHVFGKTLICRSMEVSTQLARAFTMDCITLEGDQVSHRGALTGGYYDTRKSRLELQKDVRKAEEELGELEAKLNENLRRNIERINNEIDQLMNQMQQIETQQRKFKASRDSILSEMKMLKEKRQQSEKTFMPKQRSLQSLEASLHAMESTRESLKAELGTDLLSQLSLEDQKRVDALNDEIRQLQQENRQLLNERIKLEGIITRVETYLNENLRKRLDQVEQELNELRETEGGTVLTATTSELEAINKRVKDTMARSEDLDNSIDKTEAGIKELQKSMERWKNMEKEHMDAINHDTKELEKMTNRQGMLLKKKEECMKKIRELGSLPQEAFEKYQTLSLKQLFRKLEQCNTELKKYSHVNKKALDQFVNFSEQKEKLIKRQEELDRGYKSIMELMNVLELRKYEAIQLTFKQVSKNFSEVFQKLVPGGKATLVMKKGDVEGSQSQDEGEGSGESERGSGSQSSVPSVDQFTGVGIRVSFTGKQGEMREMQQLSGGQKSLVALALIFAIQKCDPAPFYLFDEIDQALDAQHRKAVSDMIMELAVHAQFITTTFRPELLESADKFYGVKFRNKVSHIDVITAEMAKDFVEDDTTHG

Target: SMC3 (human (endogenous in skin fibroblasts)) (UniProt Q9UQE7)
Experiment: affinity purification with mass spectrometry; anti-SMC3 immunoprecipitation from control and Pt1 fibroblast extracts (4 mg extract; 10 ug antibody and 10 ul protein A beads per 1 mg), 1 h at room temperature, washes with TBS/T and TBS/T + 250 mM NaCl, elution with 100 mM glycine pH 2; nLC-MS/MS of gel slices

- binding: binds
B1: STAG1 (protein, UniProt Q8WVM7 1-1258)
chain: MITSELPVLQDSTNETTAHSDAGSELEETEVKGKRKRGRPGRPPSTNKKPRKSPGEKSRIEAGIRGAGRGRANGHPQQNGEGEPVTLFEVVKLGKSAMQSVVDDWIESYKQDRDIALLDLINFFIQCSGCRGTVRIEMFRNMQNAEIIRKMTEEFDEDSGDYPLTMPGPQWKKFRSNFCEFIGVLIRQCQYSIIYDEYMMDTVISLLTGLSDSQVRAFRHTSTLAAMKLMTALVNVALNLSIHQDNTQRQYEAERNKMIGKRANERLELLLQKRKELQENQDEIENMMNSIFKGIFVHRYRDAIAEIRAICIEEIGVWMKMYSDAFLNDSYLKYVGWTLHDRQGEVRLKCLKALQSLYTNRELFPKLELFTNRFKDRIVSMTLDKEYDVAVEAIRLVTLILHGSEEALSNEDCENVYHLVYSAHRPVAVAAGEFLHKKLFSRHDPQAEEALAKRRGRNSPNGNLIRMLVLFFLESELHEHAAYLVDSLWESSQELLKDWECMTELLLEEPVQGEEAMSDRQESALIELMVCTIRQAAEAHPPVGRGTGKRVLTAKERKTQIDDRNKLTEHFIITLPMLLSKYSADAEKVANLLQIPQYFDLEIYSTGRMEKHLDALLKQIKFVVEKHVESDVLEACSKTYSILCSEEYTIQNRVDIARSQLIDEFVDRFNHSVEDLLQEGEEADDDDIYNVLSTLKRLTSFHNAHDLTKWDLFGNCYRLLKTGIEHGAMPEQIVVQALQCSHYSILWQLVKITDGSPSKEDLLVLRKTVKSFLAVCQQCLSNVNTPVKEQAFMLLCDLLMIFSHQLMTGGREGLQPLVFNPDTGLQSELLSFVMDHVFIDQDEENQSMEGDEEDEANKIEALHKRRNLLAAFSKLIIYDIVDMHAAADIFKHYMKYYNDYGDIIKETLSKTRQIDKIQCAKTLILSLQQLFNELVQEQGPNLDRTSAHVSGIKELARRFALTFGLDQIKTREAVATLHKDGIEFAFKYQNQKGQEYPPPNLAFLEVLSEFSSKLLRQDKKTVHSYLEKFLTEQMMERREDVWLPLISYRNSLVTGGEDDRMSVNSGSSSSKTSSVRNKKGRPPLHKKRVEDESLDNTWLNRTDTMIQTPGPLPAPQLTSTVLRENSRPMGDQIQEPESEHGSEPDFLHNPQMQISWLGQPKLEDLNRKDRTGMNYMKVRTGVRHAVRGLMEEDAEPIFEDVMMSSRSQLEDMNEEFEDTMVIDLPPSRNRRERAELRPDFFDSAAIIEDDSGFGMPMF

- binding: binds
B2: STAG3 (protein, UniProt Q9UJ98 1-1225)
chain: MSSPLQRAVGDTKRALSASSSSSASLPFDDRDSNHTSEGNGDSLLADEDTDFEDSLNRNVKKRAAKRPPKTTPVAKHPKKGSRVVHRHSRKQSEPPANDLFNAVKAAKSDMQSLVDEWLDSYKQDQDAGFLELVNFFIQSCGCKGIVTPEMFKKMSNSEIIQHLTEQFNEDSGDYPLIAPGPSWKKFQGSFCEFVRTLVCQCQYSLLYDGFPMDDLISLLTGLSDSQVRAFRHTSTLAAMKLMTSLVKVALQLSVHQDNNQRQYEAERNKGPGQRAPERLESLLEKRKELQEHQEEIEGMMNALFRGVFVHRYRDVLPEIRAICIEEIGCWMQSYSTSFLTDSYLKYIGWTLHDKHREVRLKCVKALKGLYGNRDLTTRLELFTSRFKDRMVSMVMDREYDVAVEAVRLLILILKNMEGVLTDADCESVYPVVYASHRGLASAAGEFLYWKLFYPECEIRMMGGREQRQSPGAQRTFFQLLLSFFVESELHDHAAYLVDSLWDCAGARLKDWEGLTSLLLEKDQNLGDVQESTLIEILVSSARQASEGHPPVGRVTGRKGLTSKERKTQADDRVKLTEHLIPLLPQLLAKFSADAEKVTPLLQLLSCFDLHIYCTGRLEKHLELFLQQLQEVVVKHAEPAVLEAGAHALYLLCNPEFTFFSRADFARSQLVDLLTDRFQQELEELLQSSFLDEDEVYNLAATLKRLSAFYNTHDLTRWELYEPCCQLLQKAVDTGEVPHQVILPALTLVYFSILWTLTHISKSDASQKQLSSLRDRMVAFCELCQSCLSDVDTEIQEQAFVLLSDLLLIFSPQMIVGGRDFLRPLVFFPEATLQSELASFLMDHVFIQPGDLGSGDSQEDHLQIERLHQRRRLLAGFCKLLLYGVLEMDAASDVFKHYNKFYNDYGDIIKETLTRARQIDRSHCSRILLLSLKQLYTELLQEHGPQGLNELPAFIEMRDLARRFALSFGPQQLQNRDLVVMLHKEGIQFSLSELPPAGSSNQPPNLAFLELLSEFSPRLFHQDKQLLLSYLEKCLQHVSQAPGHPWGPVTTYCHSLSPVENTAETSPQVLPSSKRRRVEGPAKPNREDVSSSQEESLQLNSIPPTPTLTSTAVKSRQPLWGLKEMEEEDGSELDFAQGQPVAGTERSRFLGPQYFQTPHNPSGPGLGNQLMRLSLMEEDEEEELEIQDESNEERQDTDMQASSYSSTSERGLDLLDSTELDIEDF
